Test results as given in PubChem BioAssay AID1347075 (National Center for Advancing Translational Sciences (NCATS), 2019).
Among all 400,000 compounds or so, about 5,500 (1.4%) were called active. The shares of active, inactive and inconclusive entries below differ from those in the screen. The call rests on the fitted dose curve; in most records, active means well fitted cell-killing curve with a large enough effect; inconclusive means small, poorly fitted or top-dose-only effect, or effect the other way; inactive means flat fitted curve, though single readings scatter. A potency beside an inconclusive call is a rough fit, not a confirmed value.
On the % scale 0 is the no-effect control and ±100 the full control effect; potency means the concentration at half of the fitted maximal effect.

Experiment: qHTS assay for MDR1-selective chemotherapeutics: Primary screen using the parental adenocarcinoma cell KB-3-1; further: nearly all actives have a fitted effect of over 60% in size
Conditions: KB-3-1 viability, CellTiter-Glo ATP luminescence, 72 h; activity change, negative = cytotoxic: at 46.1 µM (top of the series)
Outline: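 Cytotoxicity in the drug-sensitive parental line KB-3-1 was scored as loss of CellTiter-Glo luminescence following 72 h incubation with compound. Values come from curve fitting of normalized concentration-response data.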
In the case of `CCN=c1scc(-c2ccc(F)cc2)n1/N=C/c1ccccn1`, the “activity change, negative = cytotoxic” value is reported as inactive: -23.3%.
With `CCOc1ccccc1Oc1cn[nH]c1-c1ccc(OC)cc1O` the Potency was inconclusive: 20.6 µM [cytotoxic, single point].
With `CCCCCN1CSC(=S)N(Cc2ccccc2)C1` the Potency was inconclusive: 20.6 µM [cytotoxic, single point].
With `O=C(Nc1ccccn1)c1ccc(C(=O)c2ccccc2)cc1` the Potency was inconclusive: 18.4 µM [cytotoxic, single point].
With `NNC(=O)c1cccn(Cc2ccc(Cl)cc2Cl)c1=O` the Potency was inconclusive: 2.59 µM [cytotoxic, full curve, poor fit].
In the case of `Cc1cc(CNC(=O)COC(=O)Cn2[nH]c(=O)c3ccccc3c2=O)cc(C)c1O`, the “activity change, negative = cytotoxic” value is reported as inactive: 10.6%.
With `C[C@H](CO)N1C[C@H](C)[C@@H](CN(C)S(=O)(=O)c2ccccc2F)Oc2ncc(Br)cc2C1=O` the “activity change, negative = cytotoxic” value was inactive: 9.39%.
In the case of `COc1ccccc1Cc1c(-c2ccc(C#N)cc2)nc2ccc(C)cn12`, the Potency is reported as inconclusive: 23.1 µM [cytotoxic, single point].
In the case of `C=Cc1ccc(Cn2c(C)c(C(=O)NCc3ccc4c(c3)OCO4)sc2=O)cc1`, the Potency is reported as inconclusive: 29.1 µM [cytotoxic, single point].
For `Cc1c(C(=O)N2CCC(c3nc4ccccc4s3)CC2)oc2cc(Br)ccc12`, the Potency was inconclusive: 32.6 µM [cytotoxic, partial curve, poor fit].
In the case of `COc1ccc(NC(=O)C(c2ccc(C#N)cc2)n2c(=O)c(-c3cc4ccccc4[nH]3)nc3ccccc32)cc1` (centres undefined), the “activity change, negative = cytotoxic” value is reported as inactive: -12.4%.
For `Cc1csc(NC(=O)CSc2nnc3c4ccccc4nc(C(C)(C)C)n23)n1`, the Potency was inconclusive: 23.1 µM [cytotoxic, single point].
With `CCCCCCn1c(COc2ccccc2F)nnc1SCC(=O)N1c2ccccc2NC(=O)C1(C)C` the Potency was inconclusive: 16.4 µM [cytotoxic, single point].
For `O=C1c2cccc3cccc(c23)C(=O)N1CCCN(C(=O)c1cccs1)c1cccc(F)c1`, the “activity change, negative = cytotoxic” value was inactive: -19.6%.
With `CCc1nn(C(C)C(=O)NCCN2CCN(c3cccc(C)c3C)CC2)c(=O)c2cc3occc3n12` (centres undefined) the Potency was inconclusive: 20.6 µM [cytotoxic, single point].
With `CCC(=O)c1c[nH]c(C(=O)N2CCN(c3ccccc3)CC2)c1` the “activity change, negative = cytotoxic” value was inactive: -0.0837%.
With `CCOc1ccc(NS(=O)(=O)c2ccc(C(=O)N3CCCC3)cc2)cc1` the Potency was inconclusive: 29.1 µM [cytotoxic, single point].
For `CCCCC[C@@H](C)N1C[C@H](COCc2ccccc2)Oc2cc(N3CC[C@H](N(C)C)C3)ccc2S1(=O)=O`, the Potency was inconclusive: 29.1 µM [cytotoxic, single point].
For `CCCCNC(=O)Cn1c(=O)c2c(ncn2CCC(C)C)n(Cc2ccccc2)c1=O`, the “activity change, negative = cytotoxic” value was inactive: 4.19%.
In the case of `CC1(C(=O)NS(=O)(=O)C2CC2)CCN(C(=O)c2cccc(Cl)c2)C1` (centres undefined), the “activity change, negative = cytotoxic” value is reported as inactive: 0%.
With `COc1ccc(C2CC(=O)N(C)c3ccccc3S2)cc1` (centres undefined) the Potency was inconclusive: 11.6 µM [cytotoxic, partial curve, poor fit].
For `Cc1ccc(SCC(=O)OCC(=O)N(C)C2CCS(=O)(=O)C2)cc1C` (centres undefined), the “activity change, negative = cytotoxic” value was inactive: 2.3%.
In the case of `CN(c1ccccc1)S(=O)(=O)c1ccc(Cl)c(C(=O)Nc2nc3ccccc3[nH]2)c1`, the Potency is reported as inconclusive: 23.1 µM [cytotoxic, single point].
In the case of `COc1ccc(CNC(=O)COc2ccc(S(=O)(=O)N3CCCCC3)cc2Cl)cc1`, the Potency is reported as inconclusive: 0.411 µM [cytotoxic, full curve].
With `O=C1NC[C@@H](CCCCN2C[C@H](Cc3ccc(O)cc3)N(CCC3CCCCC3)C(=O)C2=O)N(Cc2ccccc2)C1=O` the Potency was inconclusive: 18.4 µM [rising, single point].
With `COC(=O)c1[nH]c2ccc(Cl)cc2c1NC(=O)CCN1CCN(C2CCCCC2)CC1` the Potency was inconclusive: 20.6 µM [cytotoxic, single point].
In the case of `Cc1cccc2sc(N(CCCN(C)C)C(=O)c3cc4ccccc4oc3=O)nc12`, the “activity change, negative = cytotoxic” value is reported as inactive: 0.264%.
In the case of `C[C@@H]1CN([C@@H](C)CO)C(=O)c2cc(C#Cc3cccc(F)c3)cnc2O[C@@H]1CN(C)CC1CCOCC1`, the Potency is reported as inconclusive: 14.6 µM [cytotoxic, partial curve, poor fit].
In the case of `COc1ccc(CCNC(=O)CCn2c(=O)c3ccccc3n(CC(=O)Nc3ccccc3F)c2=O)cc1OC`, the activity change, negative = cytotoxic is reported as inconclusive: 2.84%.
For `CC(C)(C)c1ccc(C2Sc3ccccc3NC3=C2C(=O)c2ccccc23)cc1` (centres undefined), the Potency was inconclusive: 25.9 µM [cytotoxic, single point].
With `COc1ccc(/C=N/NC(=O)c2cc(C)oc2C)cc1OCc1ccccc1` the Potency was inconclusive: 23.1 µM [cytotoxic, single point].
For `Cc1ccc2c(c1)C(=O)C(=O)N2c1ccc(C(F)(F)F)cc1`, the Potency was inconclusive: 0.0073 µM [rising, full curve, poor fit].
For `COc1cc(/C=N/N(C)C)cc(Br)c1O`, the activity change, negative = cytotoxic was inconclusive: 2.68%.
For `O=C(Cc1ccccc1)N(Cc1cccnc1)c1nc2c(F)cccc2s1`, the Potency was inconclusive: 18.4 µM [cytotoxic, partial curve, poor fit].
With `O=C(/C=C/c1ccco1)Nc1ccc(Oc2ccc(Cl)cc2)cc1` the Potency was active: 5.8 µM.
In the case of `COc1ccc(NC(=O)c2cc3n(n2)C(C(F)(F)F)CC(c2ccco2)N3)cc1` (centres undefined), the activity change, negative = cytotoxic is reported as inconclusive: 4.31%.
In the case of `COc1ccc2c(-c3ccc(OCCN4CCCCC4)cc3)c(-c3ccccc3OC)sc2c1`, the “activity change, negative = cytotoxic” value is reported as inactive: 0%.
For `Cc1ccc(S(=O)(=O)N2CCC(C(N)=O)CC2)cc1[N+](=O)[O-]`, the “activity change, negative = cytotoxic” value was inactive: -3.87%.
With `O=C(CCCc1nc(-c2ccc(Cl)cc2)no1)NCC1CCCO1` (centres undefined) the Potency was active: 10.3 µM.
With `O=C1C2C3C=CC(C4CC34)C2C(=O)N1/N=C/c1ccc([N+](=O)[O-])o1` (centres undefined) the Potency was active: 16.4 µM.
For `CCCN(S(=O)(=O)c1ccccc1F)S(=O)(=O)c1ccccc1Br`, the “activity change, negative = cytotoxic” value was inactive: 0%.
With `CN(C)c1oc(-c2ccccc2Cl)nc1C#N` the Potency was inconclusive: 16.4 µM [cytotoxic, single point].
For `COc1ccc(NC(=O)c2ccc3ccccc3c2)cc1NS(=O)(=O)c1ccc(F)cc1`, the “activity change, negative = cytotoxic” value was inactive: 1.42%.
With `Cc1cc(/C=C2\NC(=S)NC2=O)c(C)n1-c1cccnc1` the Potency was inconclusive: 0.231 µM [rising, full curve, poor fit].
